Source: the supplement of paper PMC10849652
Some of the results follow.

The chains behind the UniProt entries cited, without tags or fusion partners. Where a name states a change or a piece, a line headed by the entry shows the natural chain unless it says otherwise.
UniProt Q93063: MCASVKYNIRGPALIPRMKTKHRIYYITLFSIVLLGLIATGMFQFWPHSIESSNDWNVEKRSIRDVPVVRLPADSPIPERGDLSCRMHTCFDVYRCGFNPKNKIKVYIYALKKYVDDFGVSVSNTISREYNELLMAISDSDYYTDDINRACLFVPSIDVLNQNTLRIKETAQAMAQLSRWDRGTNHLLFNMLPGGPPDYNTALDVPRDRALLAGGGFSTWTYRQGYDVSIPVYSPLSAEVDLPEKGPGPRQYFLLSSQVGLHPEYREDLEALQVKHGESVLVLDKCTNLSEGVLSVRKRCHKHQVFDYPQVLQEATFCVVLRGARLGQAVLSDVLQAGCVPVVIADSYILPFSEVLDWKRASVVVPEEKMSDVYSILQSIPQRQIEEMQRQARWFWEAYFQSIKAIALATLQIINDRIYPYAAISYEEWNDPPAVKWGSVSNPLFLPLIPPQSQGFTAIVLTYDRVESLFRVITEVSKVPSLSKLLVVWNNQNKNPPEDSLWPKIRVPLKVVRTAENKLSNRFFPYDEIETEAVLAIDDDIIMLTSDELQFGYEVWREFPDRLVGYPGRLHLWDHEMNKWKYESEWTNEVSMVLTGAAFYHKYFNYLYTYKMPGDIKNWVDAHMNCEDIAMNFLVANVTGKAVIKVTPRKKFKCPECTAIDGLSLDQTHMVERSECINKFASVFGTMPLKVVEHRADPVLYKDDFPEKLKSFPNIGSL
UniProt Q9UNN5: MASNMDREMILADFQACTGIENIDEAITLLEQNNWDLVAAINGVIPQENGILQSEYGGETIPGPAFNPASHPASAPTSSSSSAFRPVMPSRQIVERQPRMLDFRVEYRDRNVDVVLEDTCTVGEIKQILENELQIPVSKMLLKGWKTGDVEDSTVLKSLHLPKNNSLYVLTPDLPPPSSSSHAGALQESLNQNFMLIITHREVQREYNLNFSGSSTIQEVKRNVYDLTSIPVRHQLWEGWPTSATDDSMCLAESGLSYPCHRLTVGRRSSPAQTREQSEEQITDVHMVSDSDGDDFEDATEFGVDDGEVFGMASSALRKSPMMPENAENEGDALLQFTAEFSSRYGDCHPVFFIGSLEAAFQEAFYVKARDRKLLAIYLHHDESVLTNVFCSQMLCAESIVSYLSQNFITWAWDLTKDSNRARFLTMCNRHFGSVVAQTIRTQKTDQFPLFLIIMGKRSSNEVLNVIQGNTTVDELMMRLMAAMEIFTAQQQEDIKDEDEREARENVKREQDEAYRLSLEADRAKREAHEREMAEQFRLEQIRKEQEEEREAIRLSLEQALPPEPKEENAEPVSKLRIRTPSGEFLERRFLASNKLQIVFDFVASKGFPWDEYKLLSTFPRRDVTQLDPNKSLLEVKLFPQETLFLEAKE
UniProt P16930: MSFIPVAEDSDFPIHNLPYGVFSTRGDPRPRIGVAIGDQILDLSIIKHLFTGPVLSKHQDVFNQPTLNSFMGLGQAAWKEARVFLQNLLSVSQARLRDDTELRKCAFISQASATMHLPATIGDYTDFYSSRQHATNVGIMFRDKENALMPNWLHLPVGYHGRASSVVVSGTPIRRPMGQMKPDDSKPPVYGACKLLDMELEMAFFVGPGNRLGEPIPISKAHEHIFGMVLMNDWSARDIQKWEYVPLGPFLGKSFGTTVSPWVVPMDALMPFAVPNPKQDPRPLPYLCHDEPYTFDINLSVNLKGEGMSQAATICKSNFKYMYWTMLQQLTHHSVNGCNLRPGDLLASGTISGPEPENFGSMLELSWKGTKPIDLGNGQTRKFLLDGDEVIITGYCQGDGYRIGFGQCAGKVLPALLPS
UniProt Q7L775: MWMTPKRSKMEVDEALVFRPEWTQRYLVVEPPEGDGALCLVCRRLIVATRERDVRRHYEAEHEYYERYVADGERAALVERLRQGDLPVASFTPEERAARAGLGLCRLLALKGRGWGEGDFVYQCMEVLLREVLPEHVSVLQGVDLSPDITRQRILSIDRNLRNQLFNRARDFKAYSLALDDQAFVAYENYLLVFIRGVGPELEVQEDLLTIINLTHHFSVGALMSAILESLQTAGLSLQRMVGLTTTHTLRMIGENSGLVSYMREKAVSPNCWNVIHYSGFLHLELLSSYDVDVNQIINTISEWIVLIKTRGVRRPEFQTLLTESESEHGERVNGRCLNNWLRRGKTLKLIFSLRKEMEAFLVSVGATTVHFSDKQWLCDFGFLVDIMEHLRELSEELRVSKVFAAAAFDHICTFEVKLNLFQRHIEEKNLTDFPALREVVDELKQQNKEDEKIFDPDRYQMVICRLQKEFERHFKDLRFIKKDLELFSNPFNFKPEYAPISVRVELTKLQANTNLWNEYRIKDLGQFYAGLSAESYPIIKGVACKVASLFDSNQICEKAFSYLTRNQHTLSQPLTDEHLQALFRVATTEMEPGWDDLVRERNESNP
UniProt Q9NPD3, whole entry, looked up: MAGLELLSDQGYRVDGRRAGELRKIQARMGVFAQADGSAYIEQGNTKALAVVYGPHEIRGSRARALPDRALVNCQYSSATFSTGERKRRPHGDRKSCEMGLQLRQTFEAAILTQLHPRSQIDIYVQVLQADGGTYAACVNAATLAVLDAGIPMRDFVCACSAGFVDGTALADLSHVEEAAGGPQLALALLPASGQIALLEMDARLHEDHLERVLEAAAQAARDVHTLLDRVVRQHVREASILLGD
UniProt O43491, whole entry, looked up: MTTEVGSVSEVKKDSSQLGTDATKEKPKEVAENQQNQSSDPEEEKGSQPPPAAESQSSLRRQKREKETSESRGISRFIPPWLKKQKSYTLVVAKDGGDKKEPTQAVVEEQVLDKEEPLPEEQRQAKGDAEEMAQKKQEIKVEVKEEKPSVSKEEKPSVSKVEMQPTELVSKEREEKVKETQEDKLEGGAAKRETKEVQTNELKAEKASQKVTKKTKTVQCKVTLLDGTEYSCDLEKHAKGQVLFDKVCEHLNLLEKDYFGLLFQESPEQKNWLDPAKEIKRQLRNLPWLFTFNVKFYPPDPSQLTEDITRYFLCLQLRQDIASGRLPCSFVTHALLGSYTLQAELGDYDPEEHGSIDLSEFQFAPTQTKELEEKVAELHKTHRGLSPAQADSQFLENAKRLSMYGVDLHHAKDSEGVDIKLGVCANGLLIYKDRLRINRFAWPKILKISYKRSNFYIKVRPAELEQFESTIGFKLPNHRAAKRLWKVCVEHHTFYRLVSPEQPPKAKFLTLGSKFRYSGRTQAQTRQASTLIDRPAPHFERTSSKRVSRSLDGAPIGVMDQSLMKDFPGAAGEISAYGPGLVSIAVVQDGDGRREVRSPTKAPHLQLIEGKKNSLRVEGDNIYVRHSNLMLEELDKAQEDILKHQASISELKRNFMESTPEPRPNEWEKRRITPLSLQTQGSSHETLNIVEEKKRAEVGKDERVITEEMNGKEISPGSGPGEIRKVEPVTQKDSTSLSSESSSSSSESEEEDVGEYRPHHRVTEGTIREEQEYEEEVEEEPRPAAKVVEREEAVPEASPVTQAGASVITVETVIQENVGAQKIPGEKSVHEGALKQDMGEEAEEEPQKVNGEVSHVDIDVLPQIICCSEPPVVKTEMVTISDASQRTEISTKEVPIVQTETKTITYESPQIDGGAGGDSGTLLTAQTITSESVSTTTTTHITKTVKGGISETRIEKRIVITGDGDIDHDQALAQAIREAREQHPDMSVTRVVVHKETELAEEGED
UniProt Q9NZB2: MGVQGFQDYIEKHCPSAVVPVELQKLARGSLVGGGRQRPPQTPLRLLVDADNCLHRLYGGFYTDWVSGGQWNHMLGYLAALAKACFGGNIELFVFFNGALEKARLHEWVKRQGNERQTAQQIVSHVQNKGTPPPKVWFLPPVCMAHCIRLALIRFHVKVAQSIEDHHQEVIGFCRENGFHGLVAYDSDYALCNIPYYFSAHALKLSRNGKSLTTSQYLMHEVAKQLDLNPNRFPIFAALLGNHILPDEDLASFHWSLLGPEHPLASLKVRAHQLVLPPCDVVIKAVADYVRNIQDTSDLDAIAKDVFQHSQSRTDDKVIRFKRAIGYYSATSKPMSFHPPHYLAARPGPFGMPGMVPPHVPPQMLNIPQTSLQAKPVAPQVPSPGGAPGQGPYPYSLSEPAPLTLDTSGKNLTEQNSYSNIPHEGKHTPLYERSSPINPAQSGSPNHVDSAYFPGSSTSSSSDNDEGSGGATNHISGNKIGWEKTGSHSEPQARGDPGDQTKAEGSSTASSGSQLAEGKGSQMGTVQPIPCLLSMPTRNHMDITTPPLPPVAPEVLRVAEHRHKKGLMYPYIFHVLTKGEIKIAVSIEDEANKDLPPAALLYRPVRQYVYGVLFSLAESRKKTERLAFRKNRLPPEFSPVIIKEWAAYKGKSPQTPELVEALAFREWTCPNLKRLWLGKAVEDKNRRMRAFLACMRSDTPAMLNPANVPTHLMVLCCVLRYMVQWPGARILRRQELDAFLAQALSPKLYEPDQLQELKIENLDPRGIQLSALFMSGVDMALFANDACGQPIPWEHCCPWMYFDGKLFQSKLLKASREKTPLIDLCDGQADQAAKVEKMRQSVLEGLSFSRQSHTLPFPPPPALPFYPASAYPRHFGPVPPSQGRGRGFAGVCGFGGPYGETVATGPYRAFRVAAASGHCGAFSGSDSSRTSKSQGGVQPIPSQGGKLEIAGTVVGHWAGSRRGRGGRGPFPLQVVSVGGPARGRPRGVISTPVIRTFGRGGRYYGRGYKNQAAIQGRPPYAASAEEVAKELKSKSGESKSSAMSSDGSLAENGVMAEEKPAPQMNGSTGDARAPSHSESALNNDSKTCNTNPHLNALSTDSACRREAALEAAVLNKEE
UniProt P13804: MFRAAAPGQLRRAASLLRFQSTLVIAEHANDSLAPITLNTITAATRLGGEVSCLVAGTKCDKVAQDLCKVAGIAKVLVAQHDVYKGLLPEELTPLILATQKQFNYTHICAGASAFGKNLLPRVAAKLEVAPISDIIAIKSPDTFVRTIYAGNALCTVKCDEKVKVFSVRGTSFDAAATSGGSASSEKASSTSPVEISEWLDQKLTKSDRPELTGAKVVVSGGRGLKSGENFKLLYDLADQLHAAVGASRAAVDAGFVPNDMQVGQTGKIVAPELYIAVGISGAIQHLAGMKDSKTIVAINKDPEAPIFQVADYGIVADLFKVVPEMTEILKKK
UniProt Q96B26, whole entry, looked up: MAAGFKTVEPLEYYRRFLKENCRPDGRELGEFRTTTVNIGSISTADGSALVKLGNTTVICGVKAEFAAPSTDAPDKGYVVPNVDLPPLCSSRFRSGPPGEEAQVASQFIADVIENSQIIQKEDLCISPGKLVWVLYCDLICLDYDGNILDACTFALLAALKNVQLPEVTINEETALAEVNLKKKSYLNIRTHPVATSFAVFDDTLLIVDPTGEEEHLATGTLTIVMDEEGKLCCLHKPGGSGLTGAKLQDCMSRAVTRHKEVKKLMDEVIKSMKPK
UniProt O75616: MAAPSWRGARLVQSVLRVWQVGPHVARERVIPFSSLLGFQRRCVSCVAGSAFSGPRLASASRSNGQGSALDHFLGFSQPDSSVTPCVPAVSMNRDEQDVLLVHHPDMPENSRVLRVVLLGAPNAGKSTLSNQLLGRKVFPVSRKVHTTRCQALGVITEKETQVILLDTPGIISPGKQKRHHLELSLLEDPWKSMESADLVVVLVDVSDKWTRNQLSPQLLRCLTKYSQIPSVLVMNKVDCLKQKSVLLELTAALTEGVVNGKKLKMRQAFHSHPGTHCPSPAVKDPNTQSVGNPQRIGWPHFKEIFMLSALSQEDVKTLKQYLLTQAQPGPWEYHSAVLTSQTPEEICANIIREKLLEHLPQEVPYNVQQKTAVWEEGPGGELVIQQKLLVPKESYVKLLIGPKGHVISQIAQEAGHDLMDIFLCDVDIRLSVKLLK
UniProt Q01844: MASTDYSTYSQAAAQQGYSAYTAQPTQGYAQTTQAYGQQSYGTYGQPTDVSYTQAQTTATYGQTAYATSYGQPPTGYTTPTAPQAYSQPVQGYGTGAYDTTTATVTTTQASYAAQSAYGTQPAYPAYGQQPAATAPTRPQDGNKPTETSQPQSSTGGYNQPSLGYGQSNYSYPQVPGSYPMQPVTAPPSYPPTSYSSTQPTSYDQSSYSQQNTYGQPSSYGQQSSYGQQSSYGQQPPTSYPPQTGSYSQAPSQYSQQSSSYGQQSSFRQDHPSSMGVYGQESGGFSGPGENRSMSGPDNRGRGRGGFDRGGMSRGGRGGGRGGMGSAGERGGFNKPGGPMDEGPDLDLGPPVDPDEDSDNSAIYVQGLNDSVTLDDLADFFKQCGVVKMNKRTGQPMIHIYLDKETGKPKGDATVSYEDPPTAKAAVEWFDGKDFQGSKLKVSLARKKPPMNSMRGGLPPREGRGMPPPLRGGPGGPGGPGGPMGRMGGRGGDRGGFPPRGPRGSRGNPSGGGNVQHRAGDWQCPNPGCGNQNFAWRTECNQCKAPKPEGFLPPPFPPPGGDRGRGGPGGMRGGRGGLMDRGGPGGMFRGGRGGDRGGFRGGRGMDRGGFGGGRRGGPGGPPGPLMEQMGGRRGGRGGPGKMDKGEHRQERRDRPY
UniProt Q01469, whole entry, looked up: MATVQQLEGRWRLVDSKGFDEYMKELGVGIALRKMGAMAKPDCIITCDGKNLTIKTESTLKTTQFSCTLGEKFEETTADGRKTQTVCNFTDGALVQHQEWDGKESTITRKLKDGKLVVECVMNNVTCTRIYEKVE

Experiments:
Assay in all cases: log2 fold change, soluble protein after heating vs DMSO (PISA); higher = thermal stabilisation; K562 cells, 10 uM, 30 min; active = over 0.2 and 3.5 SD of the protein, either way, in both replicates (recomputed)
[1] = compound: CC[C@@H]1C(=O)N(C)c2cnc(Nc3ccc(C(=O)NC4CCN(C)CC4)cc3OC)nc2N1C1CCCC1
Procedure, shortened: (§1)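 Quantification of soluble protein used TMTpro 16plex LC-MS/MS, with channel sums equalised. Samples were the supernatant after 21,000xg for 90 min of pooled aliquots from K562 cells (2×10^6 cells/mL) treated with 10 μM compound for 30 min, heated for 3 min over 48°C-58°C, and extracted in PBS with 0.5% NP-40 at 4°C. Values, from duplicates, describe thermal stability against control samples on a log2 fold-change scale.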

volasertib = compound: CC[C@@H]1C(=O)N(C)c2cnc(Nc3ccc(C(=O)N[C@H]4CC[C@H](N5CCN(CC6CC6)CC5)CC4)cc3OC)nc2N1C(C)C [volasertib]
Procedure, shortened: as §1

[2] = compound: CC[C@H](C)N1C=C(C2=C(C=C(C=C21)C3=CN=C(C=C3)N4CCNCC4)C(=O)NCC5=C(C=C(NC5=O)C)C)C
Procedure, shortened: as §1

epoxomicin = compound: CC[C@H](C)[C@@H](C(=O)N[C@@H]([C@@H](C)O)C(=O)N[C@@H](CC(C)C)C(=O)[C@]1(CO1)C)NC(=O)[C@H]([C@@H](C)CC)N(C)C(=O)C [epoxomicin]
Procedure, shortened: as §1

[3] = compound: CCn1c(C(=O)N(C2CC2)C2CC2)cc2c3c(ncn3C)c(Nc3cc(C)n(C)n3)nc21
Procedure, shortened: as §1

[4] = compound: CCn1cc(-c2ccnc3[nH]c(-c4cccc(CN(C)C)c4)cc23)c(-c2ccc(NC(=O)N(C)C)cc2)n1
Procedure, shortened: as §1

[5] = compound: CN(C)CC(=O)Nc1ccc2[nH]c(=O)c3ccccc3c2c1
Procedure, shortened: as §1

rosiglitazone = compound: CN(CCOC1=CC=C(C=C1)C[C@H]2C(=O)NC(=O)S2)C3=CC=CC=N3 (racemic) [rosiglitazone]
Procedure, shortened: as §1

[6] = compound: CN1C2=C(C3=C1C(=O)N(N=C3)CC4=CC(=CC=C4)N)SC(=C2)S(=O)C
Procedure, shortened: as §1

[7] = compound: CN1CCC(CNc2ccc3ncc(-c4cccc(OC(F)(F)F)c4)n3n2)CC1
Procedure, shortened: as §1

saracatinib = compound: CN1CCN(CCOc2cc(OC3CCOCC3)c3c(Nc4c(Cl)ccc5c4OCO5)ncnc3c2)CC1 [saracatinib]
Procedure, shortened: as §1

sotrastaurin = compound: CN1CCN(c2nc(C3=C(c4c[nH]c5ccccc45)C(=O)NC3=O)c3ccccc3n2)CC1 [sotrastaurin]
Procedure, shortened: as §1

alvocidib = compound: CN1CC[C@H](c2c(O)cc(O)c3c(=O)cc(-c4ccccc4Cl)oc23)[C@H](O)C1 [alvocidib]
Procedure, shortened: as §1

Tubastatin A = compound: CN1CCc2c(c3ccccc3n2Cc2ccc(C(=O)NO)cc2)C1 [Tubastatin A]
Procedure, shortened: as §1

[8] = compound: CNC(=O)C1=CC=CC=C1NC2=NC(=NC=C2Cl)NC3=C(C=C(C=C3)N4CCOCC4)OC
Procedure, shortened: as §1

defactinib = compound: CNC(=O)c1ccc(Nc2ncc(C(F)(F)F)c(NCc3nccnc3N(C)S(C)(=O)=O)n2)cc1 [defactinib]
Procedure, shortened: as §1

rucaparib = compound: CNCc1ccc(-c2[nH]c3cc(F)cc4c3c2CCNC4=O)cc1 [rucaparib]
Procedure, shortened: as §1

[9] = compound: CNc1nc(-c2ccc3c(N)n[nH]c3c2)cc(N2C[C@@H](C(=O)NC3CCCCC3)CC[C@H]2C)n1
Procedure, shortened: as §1

encorafenib = compound: COC(=O)N[C@@H](C)CNc1nccc(-c2cn(C(C)C)nc2-c2cc(Cl)cc(NS(C)(=O)=O)c2F)n1 [encorafenib]
Procedure, shortened: as §1

[10] = compound: COC(=O)[C@H](CCSC)NC(=O)C1=C(C=C(C=C1)NC[C@H](CS)N)C2=CC=CC=C2
Procedure, shortened: as §1

Measured: log2 fold change

EXT2 isoform 3 (UniProt Q93063)
inactive: [1] 0.041 | volasertib 0.005 | [2] -0.046 | epoxomicin -0.015 | [3] 0.021 | [4] 0.026 | [5] -0.016 | rosiglitazone 0.002 | [6] 0.026 | [7] 0.069 | saracatinib -0.069 | sotrastaurin -0.016 | alvocidib 0.042 | Tubastatin A 0.111 | [8] 0.047 | defactinib 0.025 | rucaparib 0.057 | [9] -0.02 | encorafenib 0.064 | [10] -0.086

FAF1 (UniProt Q9UNN5)
inactive: [1] -0.017 | volasertib -0.069 | [2] 0.02 | epoxomicin 0.038 | [3] 0.028 | [4] -0.031 | [5] -0.026 | rosiglitazone -0.003 | [6] -0.037 | [7] 0.001 | saracatinib 0.057 | sotrastaurin -0.017 | alvocidib -0.073 | Tubastatin A -0.04 | [8] 0.003 | defactinib -0.05 | rucaparib -0.044 | [9] -0.038 | encorafenib 0.02 | [10] 0.015

ERAP1 isoform 2 (UniProt Q9NZ08)
inactive: [1] 0.012 | volasertib -0.031 | [2] 0.02 | epoxomicin -0.015 | [3] 0.026 | [4] 0.014 | [5] -0.034 | rosiglitazone 0.002 | [6] 0.039 | [7] 0.118 | saracatinib -0.054 | sotrastaurin -0.026 | alvocidib 0.016 | Tubastatin A 0.027 | [8] 0.009 | defactinib 0.017 | rucaparib -0.002 | [9] 0.008 | encorafenib 0.053 | [10] -0.03

FAH (UniProt P16930)
inactive: [1] -0.125 | volasertib 0.033 | [2] 0.001 | epoxomicin -0.024 | [3] -0.048 | [4] -0.009 | [5] -0.006 | rosiglitazone 0.007 | [6] -0.061 | [7] 0.054 | saracatinib 0.034 | sotrastaurin 0.023 | alvocidib -0.069 | Tubastatin A -0.015 | [8] -0.052 | defactinib -0.008 | rucaparib -0.097 | [9] -0.045 | encorafenib 0.012 | [10] 0.058

EPPK1 (UniProt P58107)
inactive: [1] 0.471 | volasertib -0.369 | [2] 0.075 | epoxomicin -0.237 | [3] -0.109 | [4] -0.052 | [5] 0.069 | rosiglitazone -0.078 | [6] 0.421 | [7] -0.016 | saracatinib -0.223 | sotrastaurin -0.266 | alvocidib 0.13 | Tubastatin A -0.141 | [8] -0.144 | defactinib 0.092 | rucaparib 0.292 | [9] 0.058 | encorafenib 0.104 | [10] -0.265

EPM2AIP1 (UniProt Q7L775)
inactive: [1] -0.094 | volasertib -0.141 | [2] 0.008 | epoxomicin 0.009 | [3] 0.017 | [4] -0.013 | [5] 0 | rosiglitazone 0.025 | [6] -0.077 | [7] -0.175 | saracatinib 0.032 | sotrastaurin 0.01 | alvocidib -0.061 | Tubastatin A -0.009 | [8] -0.012 | defactinib -0.025 | rucaparib 0.001 | [9] -0.046 | encorafenib 0.012 | [10] -0.003

EXOSC4 (UniProt Q9NPD3)
inactive: [1] 0.057 | volasertib -0.01 | [2] -0.068 | epoxomicin 0.023 | [3] 0.022 | [4] 0.047 | [5] 0.002 | rosiglitazone -0.053 | [6] -0.032 | [7] 0.132 | saracatinib 0.088 | sotrastaurin 0 | alvocidib -0.002 | Tubastatin A -0.095 | [8] -0.005 | defactinib -0.004 | rucaparib 0.012 | [9] -0.012 | encorafenib 0.004 | [10] 0.059

EXOSC9 isoform 2 (UniProt Q06265)
inactive: [1] 0.071 | volasertib 0.074 | [2] -0.064 | epoxomicin -0.016 | [3] 0.018 | [4] 0.031 | [5] -0.032 | rosiglitazone -0.006 | [6] 0.005 | [7] 0.027 | saracatinib 0.055 | sotrastaurin 0.085 | alvocidib 0.039 | Tubastatin A -0.006 | [8] 0.017 | defactinib 0.044 | rucaparib 0.045 | [9] -0.026 | encorafenib -0.007 | [10] 0.02

EPB41L2 (UniProt O43491)
inactive: [1] -0.016 | volasertib 0.002 | [2] 0.023 | epoxomicin 0.014 | [3] 0.018 | [4] 0.001 | [5] -0.014 | rosiglitazone 0.008 | [6] -0.053 | [7] -0.074 | saracatinib -0.015 | sotrastaurin 0.056 | alvocidib -0.06 | Tubastatin A 0.021 | [8] -0.025 | defactinib -0.077 | rucaparib -0.009 | [9] 0.079 | encorafenib 0.012 | [10] 0.015

FAM120A isoform 6 (UniProt Q9NZB2)
inactive: [1] 0.204 | volasertib 0.294 | [2] -0.032 | epoxomicin -0.206 | [3] 0.018 | [4] 0.068 | [5] -0.108 | rosiglitazone -0.101 | [6] 0.114 | [7] 0.164 | saracatinib 0.037 | sotrastaurin 0.018 | alvocidib 0.281 | Tubastatin A 0.043 | [8] 0.022 | defactinib 0.267 | rucaparib 0.181 | [9] 0.009 | encorafenib 0.042 | [10] 0.048

ERVK3-1, A0A0U1RQV1
inactive: [1] 0.029 | volasertib -0.012 | [2] 0 | epoxomicin 0.372 | [3] 0.004 | [4] 0.046 | [5] -0.049 | rosiglitazone 0.02 | [6] -0.039 | [7] -0.002 | saracatinib 0.023 | sotrastaurin 0.039 | alvocidib -0.036 | Tubastatin A 0.016 | [8] -0.042 | defactinib -0.018 | rucaparib -0.003 | [9] -0.026 | encorafenib -0.105 | [10] 0.064

ETFA (UniProt P13804)
inactive: [1] -0.015 | volasertib 0.035 | [2] -0.001 | epoxomicin 0.031 | [3] -0.01 | [4] -0.055 | [5] 0.012 | rosiglitazone 0.016 | [6] -0.083 | [7] -0.051 | saracatinib -0.027 | sotrastaurin 0.019 | alvocidib -0.055 | Tubastatin A -0.041 | [8] 0.02 | defactinib -0.031 | rucaparib -0.067 | [9] 0.037 | encorafenib -0.001 | [10] -0.003

EXOSC8 (UniProt Q96B26)
inactive: [1] 0.025 | volasertib 0.088 | [2] -0.046 | epoxomicin -0.04 | [3] 0.008 | [4] 0.051 | [5] -0.064 | rosiglitazone -0.001 | [6] -0.038 | [7] 0.057 | saracatinib 0.032 | sotrastaurin 0.051 | alvocidib 0.057 | Tubastatin A -0.03 | [8] 0.043 | defactinib 0.014 | rucaparib -0.026 | [9] -0.055 | encorafenib -0.024 | [10] 0.013

ERAL1 (UniProt O75616)
inactive: [1] 0.212 | volasertib 0.242 | [2] -0.086 | epoxomicin 0.116 | [3] -0.042 | [5] 0.292 | rosiglitazone 0.027 | [6] 0.162 | saracatinib 0.129 | sotrastaurin -0.02 | alvocidib -0.035 | [8] 0.009 | defactinib -0.149 | rucaparib 0.216 | [9] -0.032 | encorafenib 0.115 | [10] 0.125

Quoted from the results shown (2 entries):
FAM120A isoform 6 (UniProt Q9NZB2)
inactive: [1] 0.204 | volasertib 0.294 | [2] -0.032 | epoxomicin -0.206 | [3] 0.018 | [4] 0.068 | [5] -0.108 | rosiglitazone -0.101 | [6] 0.114 | [7] 0.164 | saracatinib 0.037 | sotrastaurin 0.018 | alvocidib 0.281 | Tubastatin A 0.043 | [8] 0.022 | defactinib 0.267 | rucaparib 0.181 | [9] 0.009 | encorafenib 0.042 | [10] 0.048

ERVK3-1, A0A0U1RQV1
inactive: [1] 0.029 | volasertib -0.012 | [2] 0 | epoxomicin 0.372 | [3] 0.004 | [4] 0.046 | [5] -0.049 | rosiglitazone 0.02 | [6] -0.039 | [7] -0.002 | saracatinib 0.023 | sotrastaurin 0.039 | alvocidib -0.036 | Tubastatin A 0.016 | [8] -0.042 | defactinib -0.018 | rucaparib -0.003 | [9] -0.026 | encorafenib -0.105 | [10] 0.064

Going on with the list:

EWSR1 isoform 5 (UniProt Q01844)
inactive: [1] 0.016 | volasertib 0.008 | [2] -0.024 | epoxomicin -0.015 | [3] 0.02 | [4] 0.059 | [5] -0.011 | rosiglitazone -0.041 | [6] 0 | [7] 0.071 | saracatinib 0.039 | sotrastaurin 0.024 | alvocidib 0.041 | Tubastatin A -0.037 | [8] -0.03 | defactinib 0.04 | rucaparib 0.04 | [9] -0.071 | encorafenib -0.042 | [10] 0.052

FABP5 (UniProt Q01469)
inactive: [1] -0.011 | volasertib -0.041 | [2] 0.004 | epoxomicin -0.001 | [3] 0.017 | [4] 0.021 | [5] 0.013 | rosiglitazone 0.061 | [6] 0.074 | [7] -0.074 | saracatinib 0.043 | sotrastaurin -0.009 | alvocidib -0.046 | Tubastatin A -0.029 | [8] 0.513 | defactinib -0.055 | rucaparib -0.039 | [9] 0.037 | encorafenib -0.003 | [10] 0.02
